The values below come from paper PMC12304293, “Combatting virulent gut bacteria by inhibiting the biosynthesis of a two-component lanthipeptide toxin” (Nature Communications, 2025).

The assay has as its system E. faecalis FA2-2 (pAM714), E. faecalis ATCC 29212. In kind it is cell-based, Enterococcus faecalis. The conditions noted are these: trials 1-3; for growth curve reading, ATCC 29212 +9: E. faecalis ATCC 29212 with 9; for growth curve reading, pAM714 +9: E. faecalis pAM714 with 9. As for the experimental part:
To a 96-well plate, BHI media was added containing 200 µM of inhibitor 9. An overnight culture of E. faecalis was diluted to a concentration of 10^6 CFU/mL and an equal volume of this culture was added to the well containing inhibitor. A growth control was prepared by combining the diluted bacterial cells with an equal volume of sterile BHI. A sterility control well was filled with sterile BHI to the same volume. The 96-well plate was transferred to a plate reader preheated to 37 °C and the plate was shaken continuously. The OD600 of each well was measured over the course of 24 h. Uncorrected OD600 values were plotted as a function of time. […]
or B) E. faecalis ATCC 29212. Wells containing B HI media were inocul ated with 1 x 106 C F U / m L of E. faecalis .I nhibitor 9 was added to achieve a well concentration of 100 µM. A growth control well not containing 9 an d a sterile control not co ntaining bacteria were s et up on the same plate.
The plate was incubated with shaking at 37 ̊C and the OD600 was measured every 30 min for 18h.
This experiment was conducted on three biological samples (n = 3). Error bars represent the standard of devi ation and are c enter ed at the me an. Source data are p rovided as a Source Data file. […]

The structures appear in SMILES notation. Values joined by “and” are separate entries in the source; they are usually repeats but may differ in a detail not shown here. Identical values can stand only once. Like-named read-outs stand apart in the source and are kept apart here. Further values from the same series stand in other lists. Non-standard residues stand in square brackets, D forms with d. Residues, ends and D or L forms follow the SMILES beside them. *: point of attachment. boroGlu = O=C(O)CC[C@H](N*)B(O)O; Gly(cPr) = N[C@H](C(=O)O)C1CC1

With `CC(=O)NCC(=O)N[C@@H](CC(=O)O)C(=O)N[C@H](C(=O)N[C@@H](CCC(N)=O)C(=O)N[C@@H](C)C(=O)N[C@@H](CCC(=O)O)B(O)O)C1CC1` [Compound 9] (Ac-GD[Gly(cPr)]QA-boroGlu), under “time 2 h”, the “growth curve reading, ATCC 29212 +9” value is 0.113 and 0.1202 and 0.1066; the “growth curve reading, pAM714 +9” value was 0.1067 and 0.1037 and 0.1046. Also, for the setting “time 3 h”, the “growth curve reading, ATCC 29212 +9” value is 0.1514 and 0.1613 and 0.1459; the “growth curve reading, pAM714 +9” value is 0.1299 and 0.129 and 0.1314.
